# Laboratory results reported in PubChem BioAssay AID651593 (National Center for Advancing Translational Sciences (NCATS), 2012).
# Screen size: about 1,100 compounds; about 860 (78%) were called active. So high a share suggests a set chosen from earlier hits. The shares of active, inactive and inconclusive entries below differ from those in the screen. Calls come from the whole dose curve; as a rule, active = well fitted activation curve with a large enough effect; inconclusive = small, poorly fitted or top-dose-only effect; inactive = flat fitted curve, though single readings scatter. Potencies beside an inconclusive call are fits to weak or partial responses and may not hold up.
# Test: qHTS of Nrf2 Activators: Hit Validation in Primary Assay; note: nearly all actives have a fitted effect of over 70% in size; for activation: 0% is about no effect
# Conditions: Nrf2/ARE reporter cell assay; Potency: activation; series mostly up to 46.1 µM; activation: at the top concentration
# Method in brief: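 AREc32 cells stably carrying an ARE-driven firefly luciferase, plated overnight, then exposed 24 h at 37 °C to compounds at several concentrations. ARE activation read as luminescence with Steady-Glo after 30 min at room temperature.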
# Potency is the fitted concentration of half-maximal effect.
Structure (SMILES),activation,Potency
O=C(CNC(=S)NC(=O)c1ccccc1Br)c1ccccc1,inactive: 27.2%,
O=C1Nc2ccccc2/C1=C/c1ccccc1Cl,,active: 2.31 µM
CN1CCN(S(=O)(=O)c2ccc(Sc3nnnn3-c3ccccc3)c([N+](=O)[O-])c2)CC1,,"inconclusive: 4.61 µM [activator, single point]"
Cc1nn(-c2ccc3ccccc3c2)c(=O)c2ccccc12,,"inconclusive: 5.17 µM [activator, partial curve]"
C=C1C(=O)[C@]23C[C@H]1CCC2[C@@]1(C)C(C[C@@H]3O)[C@](C)(C(=O)O)CC[C@@H]1O (stereo partly specified),,"inconclusive: 6.51 µM [activator, partial curve]"
COc1ccccc1CC1S/C(=N/N=C/c2ccco2)NC1=O (stereo unspecified),,"inconclusive: 0.259 µM [activator, full curve]"
Oc1ccccc1C=NN=C1c2ccccc2-c2ccccc21,,"inconclusive: 2.91 µM [activator, full curve]"
N#Cc1ccc(-c2ccco2)nc1SCc1ccccc1,,"inconclusive: 1.64 µM [activator, full curve]"
Cn1c(/N=C(\N)c2ccccc2)nc2ccccc21,,"inconclusive: 4.61 µM [activator, full curve]"
N#CC1=C(N)Oc2c(ccc3ccccc23)C1c1ccsc1 (stereo unspecified),inactive: 23.4%,
COC(=O)[C@@]1(Sc2ccc(C)cc2)CC(=O)N(C(=O)/C=C/c2ccccc2)[C@@H]1c1ccccc1,,active: 3.66 µM
O=[N+]([O-])c1ccccc1S(=O)c1ccccc1[N+](=O)[O-],,active: 16.4 µM
O=C(CC(=O)Nc1ccccc1[N+](=O)[O-])Nc1ccccc1[N+](=O)[O-],,"inconclusive: 2.06 µM [activator, full curve]"
O=C(O)c1ccc(/C=C2\COc3ccccc3C2=O)cc1,,"inconclusive: 2.91 µM [activator, single point]"
O=c1c2ccccc2oc2ccc(-c3ccc4cc[nH]c4c3)cc12,,active: 3.66 µM
Brc1ccc(-c2csc(N/N=C/c3ccco3)n2)cc1,,active: 2.91 µM
Cn1c(/C=C/c2cccc([N+](=O)[O-])c2)c([N+](=O)[O-])c(=O)n(C)c1=O,,"inconclusive: 0.366 µM [activator, full curve, poor fit]"
C#CCn1c(=NC(=O)c2cccs2)sc2cccc(OC)c21,,"inconclusive: 2.91 µM [activator, full curve]"
CCOCCCNC(=O)c1ccc(-n2c(-c3ccccc3)cc3c2CCC(C)C3)cc1 (stereo unspecified),,"inconclusive: 18.4 µM [activator, partial curve]"
Oc1ccc2ccccc2c1N=Nc1ccccn1,,"inconclusive: 0.58 µM [activator, single point]"
COc1ccc(N(CCCN2C(=O)c3cccc4cccc(c34)C2=O)C(=O)c2ccncc2)cc1,,"inconclusive: 3.66 µM [activator, full curve]"
O=[N+]([O-])c1cnc(Nc2ccc(Cl)cn2)c([N+](=O)[O-])c1,,"inconclusive: 5.8 µM [activator, full curve]"
CCn1c(=N)n(CC(=O)c2ccco2)c2ccccc21,,"inconclusive: 20.6 µM [activator, single point]"
Cc1sc2ncnc(SCc3ccco3)c2c1C,,active: 2.91 µM

# An excerpt from above in order of molecular weight, low to high.
Structure (SMILES),activation,Potency
Oc1ccccc1C=NN=C1c2ccccc2-c2ccccc21,,"inconclusive: 2.91 µM [activator, full curve]"
Brc1ccc(-c2csc(N/N=C/c3ccco3)n2)cc1,,active: 2.91 µM
COc1ccc(N(CCCN2C(=O)c3cccc4cccc(c34)C2=O)C(=O)c2ccncc2)cc1,,"inconclusive: 3.66 µM [activator, full curve]"

# Next part

Structure (SMILES),activation,Potency
Cn1c(CC2C(=O)Nc3ccc(Br)cc32)nc2ccccc2c1=O (stereo unspecified),inactive: 26%,
O=c1c2cc3c(=O)n(-c4ccccc4O)c(=O)c3cc2c(=O)n1-c1ccccc1O,inactive: 3.75%,
O=C1N/C(=C\c2ccsc2)C(=O)N1Cc1ccc(F)cc1,,active: 1.64 µM
Cc1c(Nc2nc3ccccc3n3cnnc23)cccc1[N+](=O)[O-],,"inconclusive: 1.3 µM [activator, full curve]"
COC(=O)C(=C/C=C/c1ccco1)C(=O)OC,,active: 9.2 µM
O=C(OCC(=O)N1CCCC1)c1cc([N+](=O)[O-])ccc1Cl,,"inconclusive: 18.4 µM [activator, partial curve]"
COC(=O)c1sccc1NC(=O)c1c(C)noc1C,,"inconclusive: 11.6 µM [activator, partial curve]"
N#C/C(=C\c1cccs1)Sc1nc2ccccc2s1,,"inconclusive: 10.3 µM [activator, partial curve]"
COn1c(-c2ccccc2)nc2c1CCc1c-2no[n+]1[O-],,"inconclusive: 7.31 µM [activator, partial curve]"
O=C1C=C(Nc2cccc(Cl)c2)CC(c2ccco2)C1 (stereo unspecified),,"inconclusive: 1.46 µM [activator, full curve, poor fit]"
Cn1ccsc1=NC(=O)c1ccc([N+](=O)[O-])o1,,active: 5.17 µM
CCc1cccc(NC(=O)Cn2c(=O)n3nc(-c4cccc(F)c4)nc3c3ccccc32)c1,,"inconclusive: 2.06 µM [activator, full curve]"
Cc1ccc([N+](=O)[O-])c(OCc2ncc(Cl)n2C)c1,,active: 18.4 µM
COc1ccc(C=O)cc1OS(=O)(=O)c1ccccc1[N+](=O)[O-],,"inconclusive: 20.6 µM [activator, partial curve]"
CCN1C(=O)/C(=C\c2ccco2)C(C(=O)OC)=C1C,,active: 3.26 µM
c1ccc(-c2ccc3c(c2)NC(C2Nc4cc(-c5ccccc5)ccc4O2)O3)cc1 (stereo unspecified),inactive: 3.34%,
S=c1nc(-c2ccccc2)[nH]c2ccc(Br)cc12,,"inconclusive: 1.16 µM [activator, full curve]"
O=C(N/N=C/c1cn[nH]c1-c1ccccc1)c1ccco1,,"inconclusive: 2.31 µM [activator, full curve]"
COc1cc(OCc2ccccc2)c(C(=O)/C=C/c2ccc3c(c2)OCO3)c(OC)c1OC,,"inconclusive: 18.4 µM [activator, partial curve]"
CS(=O)(=O)c1ccc2nc(NC(=O)CCS(=O)(=O)c3ccccc3)sc2c1,,"inconclusive: 4.61 µM [activator, single point]"
Fc1cccc(Nc2cc(-n3cccn3)ncn2)c1,,"inconclusive: 5.8 µM [activator, single point]"
Oc1ccc2ccccc2c1/C=C/c1ccc2c(Br)cc(Br)c(O)c2n1,,"inconclusive: 1.64 µM [activator, full curve]"
Cc1ccccc1-c1noc(-c2ccccc2C(=O)NCc2ccco2)n1,,"inconclusive: 1.84 µM [activator, full curve]"
O=C1NC(=Nc2ccc(O)cc2)S/C1=C/c1ccco1,,"inconclusive: 0.461 µM [activator, full curve]"

Structure (SMILES),activation,Potency
CCSc1nc2ccccc2n1C(=O)/C=C\c1ccc(OC)c(OC)c1,,"inconclusive: 2.91 µM [activator, partial curve]"
CCN(C(=O)c1ccco1)c1nc(CC(=O)Nc2ccc(Cl)cc2)cs1,,"inconclusive: 2.06 µM [activator, full curve]"
O=C1C(Cl)=C(Nc2ccccc2)C(=O)c2ccccc21,,"inconclusive: 4.61 µM [activator, single point]"
COC(=O)c1ccsc1NC(=O)CSc1nnnn1Cc1ccccc1,,"inconclusive: 2.91 µM [activator, full curve]"
Fc1ccc(Nc2nc3ccccc3n3cnnc23)c(F)c1,,"inconclusive: 9.2 µM [activator, partial curve]"
COc1ccccc1-c1nnc(NC(C)=O)s1,,active: 20.6 µM
COc1ccc(Cl)cc1C(=O)O/N=C(\N)c1ccc(Cl)cc1,,"inconclusive: 2.91 µM [activator, single point]"
CNc1ccc(-c2nc(-c3ccco3)no2)cc1[N+](=O)[O-],,active: 1.84 µM
O=C1CC(C(=O)Nc2ccc(Br)cc2)S/C(=N\N=C\c2ccco2)N1 (stereo unspecified),,"inconclusive: 1.03 µM [activator, full curve]"
Cc1nn2c(-c3ccco3)nnc2c2ccccc12,,"inconclusive: 0.517 µM [activator, full curve, poor fit]"
O=C(NNC(=O)C12CC3CC(CC(C3)C1)C2)c1cccc([N+](=O)[O-])c1,inactive: 26.6%,
CC(C)CCNC(=O)c1cc(-c2ccco2)nc2ccccc12,,"inconclusive: 0.58 µM [activator, full curve]"
CC(C)(C)OC(=O)NCCC(=O)N/N=C/c1cccc2cccnc12,,"inconclusive: 1.84 µM [activator, full curve]"
CN1CCN(c2sc(S(C)(=O)=O)nc2S(=O)(=O)c2ccc(Cl)cc2)CC1,,active: 8.2 µM
Cc1ccc(Cl)c2sc(NC(=O)C3CC3)nc12,,active: 5.8 µM
O=C(Nc1ccc(N2CCN(C(=O)c3ccc(Cl)cc3)CC2)cc1)c1ccc([N+](=O)[O-])o1,,"inconclusive: 2.91 µM [activator, single point]"
CN(C)CCNC(=O)c1cccc2ccc(-c3ccc(-c4ccccc4)cc3)nc12,,"inconclusive: 3.66 µM [activator, single point]"
CCN(CC)c1ccc2c(c1)oc(=O)c1c(Cl)cc(=O)oc12,inactive: 3.61%,
CC(=O)c1ccccc1NC(=O)COC(=O)/C=C/c1ccc(C)o1,,active: 3.66 µM
COc1ccc(NC(=O)CSc2ccc(-c3ccco3)nn2)c(OC)c1,,"inconclusive: 0.517 µM [activator, full curve]"
O=C(Nc1ncc2c(n1)-c1ccccc1CC2)c1ccccc1,,active: 5.17 µM
O=C(NCc1ccco1)c1n[nH]c(=O)c2ccccc12,,"inconclusive: 1.46 µM [activator, full curve]"
COc1ccc(Nc2nnc(SCC(=O)c3cc4ccccc4o3)s2)cc1,,"inconclusive: 20.6 µM [activator, partial curve]"

# Two consecutive entries from above:
Structure (SMILES),activation,Potency
CCN(C(=O)c1ccco1)c1nc(CC(=O)Nc2ccc(Cl)cc2)cs1,,"inconclusive: 2.06 µM [activator, full curve]"
O=C1C(Cl)=C(Nc2ccccc2)C(=O)c2ccccc21,,"inconclusive: 4.61 µM [activator, single point]"
